Hit rate of the full screen: of about 580,000 compounds, about 6,100 (1.1%) were called active. The shares of active, inactive and inconclusive entries below differ from those in the screen. Calls come from the whole dose curve; as a rule, active = well fitted inhibition curve with a large enough effect; inconclusive = small, poorly fitted or top-dose-only effect, or another doubt; inactive = no such curve, though single readings can be large or run the other way. Potencies beside an inconclusive call are fits to weak or partial responses and may not hold up.
molecular target: Polyunsaturated fatty acid lipoxygenase ALOX12 (Homo sapiens) (UniProt P18054); assay: Primary qHTS assay for inhibitors of human arachidonate 12S-lipoxygenase (ALOX12): Round 2; conditions: purified 12hLO, xylenol orange hydroperoxide absorbance; activity change, negative = inhibition: at 108 µM (top of the series) unless noted
Summary of the method: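 Purified human 12hLO at 150 nM in 25 mM Hepes, 0.01% Triton X-100, pH 7.0, preincubated 15 min at room temperature with compound. Reaction started with 40 uM arachidonic acid, 30 min at room temperature. Hydroperoxide measured by Fe-xylenol orange, 573/405 nm absorbance ratio.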
% is set by controls: 0 for no effect and ±100 for the full control effect; potency is the fitted concentration of half-maximal effect.

Chains of the proteins cited; added tags and fusions are not shown. Lines headed by an entry give the natural chain unless they say otherwise; changes in a name come on top.
UniProt P18054: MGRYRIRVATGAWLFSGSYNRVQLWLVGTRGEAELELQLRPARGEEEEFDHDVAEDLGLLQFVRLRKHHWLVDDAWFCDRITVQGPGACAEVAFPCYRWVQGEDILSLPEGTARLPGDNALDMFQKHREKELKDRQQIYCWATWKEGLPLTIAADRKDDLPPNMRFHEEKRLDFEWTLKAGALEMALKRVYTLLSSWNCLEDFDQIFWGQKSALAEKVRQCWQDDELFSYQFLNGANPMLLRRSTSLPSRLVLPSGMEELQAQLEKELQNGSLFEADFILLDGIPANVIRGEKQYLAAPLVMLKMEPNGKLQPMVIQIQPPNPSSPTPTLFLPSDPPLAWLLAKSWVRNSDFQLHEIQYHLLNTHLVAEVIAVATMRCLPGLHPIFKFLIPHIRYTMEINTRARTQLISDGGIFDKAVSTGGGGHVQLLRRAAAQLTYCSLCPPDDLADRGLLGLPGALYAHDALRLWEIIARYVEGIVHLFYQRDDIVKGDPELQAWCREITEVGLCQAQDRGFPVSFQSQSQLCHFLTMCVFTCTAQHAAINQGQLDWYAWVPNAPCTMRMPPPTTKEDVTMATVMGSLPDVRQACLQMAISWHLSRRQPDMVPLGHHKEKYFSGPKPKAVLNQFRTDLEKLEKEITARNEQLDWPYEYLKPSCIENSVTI

| Structure (SMILES) | Potency | activity change, negative = inhibition |
| --- | --- | --- |
| CCNC(=O)NC(=O)C(C)N(C)CCC(=O)NC (stereo not drawn) | inconclusive: 56.2 µM [inhibitor, partial curve, poor fit] |  |
| O=C(Nc1cccc(-c2csc(Nc3ccc(Cl)cc3)n2)c1)c1ccccc1 | inconclusive: 31.6 µM [inhibitor, partial curve] |  |
| O=C1CCc2cc(S(=O)(=O)NCc3ccc(Cl)cc3)cc3c2N1CCC3 | inconclusive: 35.5 µM [inhibitor, partial curve, poor fit] |  |
| Cc1nc2ccn(Cc3ccco3)c(=O)c2cc1C(=O)N1CCN(c2ccccc2F)CC1 | inactive |  |
| CC1C(=O)NN=C1C(=O)N/N=C/c1ccco1 (stereo not drawn) | inactive |  |
| CCN(CC1CCOC1)C(=O)Cn1nc(C)c2ccccc2c1=O (stereo not drawn) | inactive |  |
| CCCOC(=O)C1=C(C)NC2=C(C(=O)CC(C)(C)C2)C1c1ccc(N(C)C)cc1 (stereo not drawn) | inconclusive: 79.4 µM [inhibitor, partial curve, poor fit] |  |
| Cc1c(C(=O)OCC(=O)N2CCCC(C)C2)oc2ccccc12 (stereo not drawn) | inconclusive: 5.62 µM [inhibitor, full curve, poor fit] |  |
| CCOc1ccc2nc(SCC(=O)NCc3ccc(OC)cc3)[nH]c2c1 | inactive |  |
| Cc1cc(Cl)ccc1NC(=S)NC(C)(C)C | inactive |  |
| Cc1cc2nc3c(=O)n(CCc4ccccc4)c(=O)[nH]c3nc2cc1N | inconclusive: 28.2 µM [inhibitor, partial curve, poor fit] |  |
| COc1ccc(/C=N/NC(N)=S)cc1OC(=O)c1cccc2ccccc12 | active: 15.8 µM |  |
| Cc1ccccc1NC(=O)CN1C(=O)NC2(CCC(C(C)(C)C)CC2)C1=O (stereo not drawn) | inconclusive: 89.1 µM [inhibitor, single point] |  |
| COc1cccc(CCC(=O)Nc2cc3c(cc2C(=O)O)OCCCO3)c1OC | inconclusive: 112 µM [inhibitor, single point] |  |
| O=C(CCC(=O)N1CCN(c2ccc(F)cc2)CC1)N1CCN(c2ccc(F)cc2)CC1 | active: 1.78 µM |  |
| O=C1CCCC(O)=C1N=Nc1ccc2ncsc2c1 | inconclusive: 14.1 µM [inhibitor, full curve] |  |
| O=C(NCc1ccc(F)cc1)C1CCN(S(=O)(=O)c2ccc(Cl)cc2)CC1 | inactive |  |
| O=C(C1CN(c2cccc(Cl)c2)C(=O)N1)N1CCCC1 (stereo not drawn) | inconclusive: 56.2 µM [inhibitor, full curve] |  |
| C/C(CC(=O)Nc1ccc(Cl)cc1)=N\NC(=O)C1CCCCC1 | inactive |  |
| CC(C)(c1ccccc1)c1ccc(OCC(O)CN2CCCC2)cc1 (stereo not drawn) | inconclusive: 56.2 µM [inhibitor, partial curve, poor fit] |  |
| CCOC(=O)C1(Cc2ccc(Cl)cc2)CCN(CCCn2cccn2)CC1 | inactive |  |
| COc1ccc(NC(=O)C2CN(S(=O)(=O)C3CC3)CC23CCCCC3)cc1 (stereo not drawn) | inactive |  |
| N#Cc1nc(-c2cccc3ccccc23)oc1NCCCN1CCOCC1 | inconclusive: 17.8 µM [inhibitor, partial curve, poor fit] |  |

Structures above containing fluorine:

| Structure (SMILES) | Potency | activity change, negative = inhibition |
| --- | --- | --- |
| Cc1nc2ccn(Cc3ccco3)c(=O)c2cc1C(=O)N1CCN(c2ccccc2F)CC1 | inactive |  |
| O=C(CCC(=O)N1CCN(c2ccc(F)cc2)CC1)N1CCN(c2ccc(F)cc2)CC1 | active: 1.78 µM |  |
| O=C(NCc1ccc(F)cc1)C1CCN(S(=O)(=O)c2ccc(Cl)cc2)CC1 | inactive |  |

Next results follow.

| Structure (SMILES) | Potency | activity change, negative = inhibition |
| --- | --- | --- |
| Nc1nc(N2CCOCC2)nc2c1C(C(=O)Nc1ccc(Cl)cc1)CC(=O)N2 (stereo not drawn) | inconclusive: 56.2 µM [inhibitor, partial curve, poor fit] |  |
| COc1ccc(C2=CC(c3ccc(OC)cc3)n3nnnc3N2)cc1 (stereo not drawn) | inconclusive: 56.2 µM [inhibitor, partial curve, poor fit] |  |
| Cc1ccc2cccc(NC(=O)C(C)(C)Oc3ccc(Cl)cc3)c2n1 | inactive |  |
| CC[C@]12c3[nH]c4ccc(Cl)cc4c3CCN1C(=O)[C@@H](CC(=O)NCCC1=CCCCC1)C[C@@H]2C(=O)N1CCN(C(=O)c2ccco2)CC1 | active: 25.1 µM |  |
| O=C(Oc1ccc(C(=S)N2CCOCC2)cc1)c1ccc(F)cc1 | inconclusive: 39.8 µM [inhibitor, partial curve, poor fit] |  |
| Cc1nc2nc(C)c(NS(=O)(=O)c3ccc(Cl)cc3)c(=O)n2[nH]1 | inactive |  |
| NC(=O)N/N=C/c1ccc([N+](=O)[O-])o1 | inactive |  |
| OC1(c2ccc(F)cc2)CN(c2ccccc2)C2=[N+]1CCS2 (stereo not drawn) | inactive |  |
| Cc1ccc(S(=O)(=O)NN2C(=O)/C(=C/c3ccccn3)SC2=S)cc1 | inconclusive: 56.2 µM [inhibitor, partial curve, poor fit] |  |
| CC(=O)c1c(C)[nH]c(C(=O)c2cc3cc(Cl)ccc3o2)c1C | inconclusive: 44.7 µM [inhibitor, partial curve, poor fit] |  |
| CC(C)CC(=O)N1CCC(C(=O)N2CCCCCCNC(=O)CC2)CC1 | inactive |  |
| CCN(CC)C(=O)C1CCCN(C/C(C)=C/c2ccccc2)C1 (stereo not drawn) | inconclusive: 0.224 µM [inhibitor, full curve, poor fit] |  |
| Cc1cccc(N(Cc2ccccc2)C(=O)c2cc(S(=O)(=O)N3CCOCC3)ccc2F)c1 | inconclusive: 112 µM [inhibitor, single point] |  |
| CCC(C)Nc1sc(S(C)(=O)=O)nc1S(=O)(=O)c1ccc(C)cc1 (stereo not drawn) | inactive |  |
| COc1ccc(Cc2c(-c3cccc(Br)c3)nc3c(C)cc(Br)cn23)c(C)c1 | inconclusive: 0.355 µM [inhibitor, full curve, poor fit] |  |
| C=C1c2c(Cl)ccc(O)c2C(O)=C2C(=O)[C@]3(O)C(O)=C(C(N)=O)C(=O)[C@@H](N(C)C)[C@@H]3[C@@H](O)C12 (stereo partly drawn) | inconclusive: 50.1 µM [inhibitor, partial curve, poor fit] |  |
| CCC(C)C(Nc1ncnc2scc(-c3ccccc3)c12)C(=O)O (stereo not drawn) | inactive |  |
| Cc1cc(=O)[nH]c2ccc(S(=O)(=O)Nc3ccccc3)cc12 | inconclusive: 2 µM [inhibitor, full curve, poor fit] |  |
| COc1cc(NC(=O)c2cc3c(=O)oc4ccc(C)cc4c3s2)cc(OC)c1OC | inconclusive: 0.355 µM [inhibitor, full curve, poor fit] |  |
| Cc1onc(-c2ccccc2)c1C(=O)OCC(=O)Nc1ccc(Cl)cc1 | inactive |  |
| COc1cccc(CN(C)C(=O)c2cc(S(=O)(=O)N3CCN(c4ccccc4)CC3)ccc2Cl)c1 | inactive |  |
| COc1ccc(-c2nn(-c3ccccc3)cc2C2CC(c3ccco3)=NN2S(C)(=O)=O)cc1 (stereo not drawn) | inconclusive: 39.8 µM [inhibitor, partial curve, poor fit] |  |
| Cc1cccc(C(=O)N2CCCC(n3cc(-c4nc(C(C)C)no4)nn3)C2)c1 (stereo not drawn) | inactive |  |

| Structure (SMILES) | Potency | activity change, negative = inhibition |
| --- | --- | --- |
| CCOC(=O)CN1C(=O)N[C@@H](c2ccccc2)[C@@H](C(=O)OC)[C@H]1C | inconclusive: 44.7 µM [inhibitor, partial curve, poor fit] |  |
| O=C(C[C@H]1CC[C@H](NC(=O)Nc2ccccc2F)[C@@H](CO)O1)NCc1ccc(-c2ccccc2)cc1 | inconclusive: 100 µM [inhibitor, partial curve, poor fit] |  |
| Cc1ccc(C)c(NC(=O)c2nc3ccccc3nc2Cl)c1 | inactive |  |
| O=S(=O)(CCNCc1cccc(Cl)c1)Cc1ccccc1 | inconclusive: 35.5 µM [inhibitor, partial curve, poor fit] |  |
| COc1ccc(NC(=O)c2cnc(SC)nc2C(F)(F)F)cc1OC | inactive |  |
| Cc1ccccc1NC(=O)c1sc2nc(-c3ccncc3)ccc2c1N | inactive |  |
| Cc1ccc(S(=O)(=O)N(Cc2cc3cccc(C)c3[nH]c2=O)CC2CCCO2)cc1 (stereo not drawn) | inactive |  |
| O=C(N[C@H]1CCN2C(=O)c3ccc(Cl)cc3NC(=O)[C@H]12)C1CCCC1 | inconclusive: 56.2 µM [inhibitor, partial curve, poor fit] |  |
| Cc1ccncc1C(=O)O | inconclusive: 126 µM [inhibitor, partial curve, poor fit] |  |
| O=C(CC1C(=O)N(c2ccc(F)cc2)C(=O)N1Cc1cccnc1)Nc1ccc(F)cc1 (stereo not drawn) |  | inconclusive: -36.5% [inhibitor] |
| O=C(c1ccccc1)N1CCN(Cc2ccccc2)CC1 | inconclusive: 0.316 µM [inhibitor, full curve, poor fit] |  |
| CC(=O)C1=C(C)N(Cc2ccc(Cl)cc2)C(=S)NC1c1ccccc1 (stereo not drawn) | active: 44.7 µM |  |
| COc1ccc(-c2nc(C#N)c(N3CCN(Cc4ccccc4)CC3)o2)cc1OC | inactive |  |
| COCC(=O)N[C@H]1C=C[C@@H](CC(=O)OC)O[C@@H]1CO | inconclusive: 28.2 µM [inhibitor, partial curve, poor fit] |  |
| CC(=O)Nc1ccc(SCC(=O)c2ccccc2)cc1 | inconclusive: 7.94 µM [inhibitor, full curve, poor fit] |  |
| CCCc1nc2nc(C)[nH]n2c(=O)c1NC(=O)Nc1cccc(C(F)(F)F)c1 | inconclusive: 56.2 µM [inhibitor, partial curve, poor fit] |  |
| CCOC(=O)c1ccc(N2C(=O)c3n[nH]c(-c4cccs4)c3C2c2ccc(C)cc2)cc1 (stereo not drawn) | inconclusive: 28.2 µM [inhibitor, partial curve, poor fit] |  |
| Cc1c(C)c2c(OCC(=O)NCc3cccnc3)cc3c(c2oc1=O)CCC(C)(C)O3 | inactive |  |
| CCCN(CCC)CCCNC(=O)Cn1ncc2c3ccccc3n(Cc3ccc(F)cc3)c2c1=O | inconclusive: 112 µM [inhibitor, single point] |  |
| C=CCn1c(=NC(=O)c2cc(Cl)sc2Cl)sc2cc(S(N)(=O)=O)ccc21 | inconclusive: 50.1 µM [inhibitor, partial curve, poor fit] |  |
| CC(C)N(C)Cc1nnnn1CC(=O)NCc1ccc2nonc2c1 | inconclusive: 89.1 µM [inhibitor, partial curve, poor fit] |  |
| COc1ccccc1-c1oc2ccccc2c1C#CCCO | inconclusive: 44.7 µM [inhibitor, partial curve, poor fit] |  |

Reference: PubChem BioAssay AID1671190 (National Center for Advancing Translational Sciences (NCATS), 2021)
